Reference: patent publication US20240002497A1
These are yes or no findings as the source states them, for the method shown. Some binding calls cover weakened binding; strength is not graded here. One block for each binder: values may come before it.

The chains behind the UniProt entries cited, without tags or fusion partners. Where a name states a change or a piece, a line headed by the entry shows the natural chain unless it says otherwise.
UniProt O60939: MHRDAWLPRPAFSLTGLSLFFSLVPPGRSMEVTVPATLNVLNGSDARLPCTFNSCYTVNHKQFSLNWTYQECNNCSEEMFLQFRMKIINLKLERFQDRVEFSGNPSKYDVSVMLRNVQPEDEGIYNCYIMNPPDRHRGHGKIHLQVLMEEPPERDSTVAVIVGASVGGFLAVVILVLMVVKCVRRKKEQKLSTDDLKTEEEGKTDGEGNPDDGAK
UniProt Q07699: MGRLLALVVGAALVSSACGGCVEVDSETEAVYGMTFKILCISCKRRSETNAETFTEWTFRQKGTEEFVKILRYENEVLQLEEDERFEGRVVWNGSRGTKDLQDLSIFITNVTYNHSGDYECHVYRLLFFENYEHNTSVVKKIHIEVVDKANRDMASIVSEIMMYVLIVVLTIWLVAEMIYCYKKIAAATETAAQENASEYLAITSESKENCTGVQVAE

Legend:
Navβ2 (human) [1] = target: Navβ2 (human) (UniProt O60939); test: binding ELISA
Navβ2 (human) [2] = target: Navβ2 (human) (UniProt O60939); test: binding ELISA and binding FACS with purified monovalent protein
Navβ2 (human) [3] = target: Navβ2 (human) (UniProt O60939); test: classification of the 2nd ISVD
Navβ2 (human) [4] = target: Navβ2 (human) (UniProt O60939); test: binding FACS and binding ELISA with purified monovalent protein
Navβ1 (human) [5] = target: Navβ1 (human) (UniProt Q07699); test: binding ELISA
Navβ1 (human) [6] = target: Navβ1 (human) (UniProt Q07699); test: binding ELISA and binding FACS with purified monovalent protein
Navβ1 (human) [7] = target: Navβ1 (human) (UniProt Q07699); test: competition FACS with Nav1.7α-Navβ-subunit bispecific ISVDs

- binding (Navβ2 (human) [1]): binds
- binding (Navβ2 (human) [2]): binds
B1: F0103500E03 (VHH)
VHH: EVQLVESGGGLVQPGGSLRLSCAASGRTFSRYQMGWFRQAPGKEREFVAYISWSGSTRYVDSVKGRFTISRDNAKNTVYLQMNSLKPEDTAVYHCAAGTAGIISSRPETYDSWGQGTLVTVSS

- binding (Navβ2 (human) [1]): binds
- binding (Navβ2 (human) [2]): binds
B2: F0103492E09 (VHH)
VHH: EVQLVESGGGLVQAGGSLRLSCAASKSILSFAYMRWYRQAPGKQREFVASIAIGGATSYTDSVKGRFTISRDNAKNTVYLQMNSLKPEDTAVYYCSAPAGQYRGQGTLVTVSS

- binding (Navβ2 (human) [1]): binds
- binding (Navβ2 (human) [3]): binds
- binding (Navβ2 (human) [4]): binds
B3: F0103240B04 (VHH)
VHH: EVQLVESGGGLVQAGGSLRLSCAASGGTGRRYAMGWFRQAPGKEREIVAAIRWSAMTYYADDGKGRFTISRDNAKNTVYLQMNSLKPEDTAIYYCAYTWDYFKYDQVRAYRGWGQGTLVTVSS

- binding (Navβ2 (human) [1]): binds
- binding (Navβ2 (human) [2]): binds
B4: F0103505D08 (VHH)
VHH: EVQLVESGGGLVQAGGSLRLSCVTSGRTSDLSTMNWFRQAPGKEREFVARITRRGSTYYAESVKERFIISRDNAKNTVYLQMNSLKPEDTANYYCTAASEMGYHYRGQGTLVTVSS

- binding (Navβ1 (human) [5]): binds
- binding (Navβ1 (human) [6]): binds
B5: F0103478E09 (VHH)
VHH: EVQLVESGGGLVQAGGSLRLSCAASGRAFSTLAMGWFRQAPGKEREFVAAISRNGNNSATGDSLKGRFTISRDSTKSTVFLQMNTLKPEDTAVYYCAAISTPSASHPYVRKESYRYWGQGTLVTVSS

- binding (Navβ1 (human) [7]): binds
B6: F0103495F09 (VHH)
VHH: EVQLVESGGGLVQAGSSLSLSCAASGRALSTYAMGWFRQAPGKEREFVARISRSGITTYYTDSVKGRFTISRDRAKDTVYLQMNSLKPEDTAIYLCAADASTNPAGYYLRNRYDYWGQGTLVTVSS
